Results on one substance are retold here after paper PMC12026858.

Protein sequences, listed by entry. Tags and fused reporters are not part of them.
UniProt O00762: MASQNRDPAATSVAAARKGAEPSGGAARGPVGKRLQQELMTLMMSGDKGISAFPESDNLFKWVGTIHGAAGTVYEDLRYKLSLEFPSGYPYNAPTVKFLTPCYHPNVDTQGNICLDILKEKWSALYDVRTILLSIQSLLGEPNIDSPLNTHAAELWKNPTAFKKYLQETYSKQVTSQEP

The target in this test is UbcH10 (human (endogenous in HEK 293)) (UniProt O00762). In words: co-IP; HEK 293 cells transfected with p53-WT and ubiquitin-HA; total protein immunoprecipitated with anti-UbcH10 antibody, Western blot with anti-p53 antibody. (Immunoblotting shows a protein as a band on a membrane.)

Results are given in words; binding and its absence hold for the method and conditions named. In cells and extracts the contact can be indirect. Some results given as binding are weak or reduced against the parent protein; the word gives no strength.

On to p53-WT (from UniProt P04637 1-393), for which the binding result is given as “binds”.
